Some peptides are written in HELM: one residue between dots, names in brackets for other building blocks, links after the first $.
Experiment: general procedure: Fmoc solid-phase peptide synthesis; H-PAL ChemMatrix; HATU
Details: whole synthesis, based on HPLC analysis of the crude peptide, scale 0.1 mmol

Substance | crude yield [%]
PEPTIDE1{V.[Asn(GlcNAc)].W.K.K.I.L.G.K.I.I.K.V.V.K.[am]}$$$$V2.0 | 63
PEPTIDE1{V.N.W.K.K.I.L.G.K.I.I.K.V.V.K.[am]}$$$$V2.0 | 58

Source: paper PMC9988962 (Scientific Reports, 2023)
